Test results from paper PMC9335864.
No constants are given. Whether binding was seen depends on the method and setting. In cells and extracts the contact can be indirect. Some entries that bind do so weakly or less than the wild type.

Target: p97 (endogenous) (human (endogenous in U2OS)) (UniProt P55072)
Test: co-IP; co-IP of p97 from U2OS cells expressing scFv-A06 (Figure S10)

binding: binds
B1: p47 (endogenous) (protein, UniProt Q9UNZ2 1-370)
chain: MAAERQEALREFVAVTGAEEDRARFFLESAGWDLQIALASFYEDGGDEDIVTISQATPSSVSRGTAPSDNRVTSFRDLIHDQDEDEEEEEGQRFYAGGSERSGQQIVGPPRKKSPNELVDDLFKGAKEHGAVAVERVTKSPGETSKPRPFAGGGYRLGAAPEEESAYVAGEKRQHSSQDVHVVLKLWKSGFSLDNGELRSYQDPSNAQFLESIRRGEVPAELRRLAHGGQVNLDMEDHRDEDFVKPKGAFKAFTGEGQKLGSTAPQVLSTSSPAQQAENEAKASSSILIDESEPTTNIQIRLADGGRLVQKFNHSHRISDIRLFIVDARPAMAATSFILMTTFPNKELADESQTLKEANLLNAVIVQRLT
